In the supplement of paper PMC6078165:
The reference is the same well before dosing, and untreated signal decays as well.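 Fibroblast labels denote human fibroblasts, mainly primary ones from uterus (C12385, HUF), lung (H6013), bone (Hs27A), adrenal (HADF) and skin (WS1), plus mammary HMF and breast cancer-associated Hs343T. Cancer cells are basal-like or mesenchymal-like triple-negative breast cancer lines. A hit is a response shift exceeding 3x replicate standard deviation. The tissue of the other fibroblasts is not given here.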

Tested on: MDAMB231
Assay: relative JC-1 red fluorescence (viability) vs pre-drug, coculture with fibroblast (fraction); higher = more viable cancer cells
Procedure: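 JC-1 labelled TNBC cells cocultured 1:1 (1,500 cells each) with CellTrace Violet stained primary or stromal fibroblasts in 384-well plates in FluoroBrite medium, treated with one of 42 anticancer drugs at 0.1, 1, 10 or 100 uM. JC-1 red fluorescence (mitochondrial integrity in cancer cells only) was read by plate reader every 8 h for 72 h. Values are normalised to each well's pre-drug value. The stock of one drug was tenfold lower, so its dose labels may be too high.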

O=C1c2c(O)ccc(O)c2C(=O)c2c(NCCNCCO)ccc(NCCNCCO)c21 [Mitoxantrone]
relative JC-1 red fluorescence
Conditions | 8 h | 16 h | 24 h | 32 h | 40 h | 48 h | 56 h | 64 h | 72 h
1 µM, coculture fibroblast: C12385 | – | – | – | – | – | 0.295 | 0.294 | 0.326 | 0.326
1 µM, coculture fibroblast: H6013 | – | – | – | – | – | 0.51 | 0.51 | 0.501 | 0.462
1 µM, coculture fibroblast: H6019 | – | – | – | – | – | 0.4207 | 0.4 | 0.406 | 0.383
1 µM, coculture fibroblast: H6076 | – | – | – | – | – | 0.664 | 0.6562 | 0.628 | 0.614
1 µM, coculture fibroblast: H6231 | – | – | – | – | – | 0.643 | 0.617 | 0.604 | 0.584
1 µM, coculture fibroblast: HADF | – | – | – | – | – | 0.463 | 0.459 | 0.466 | 0.431
1 µM, coculture fibroblast: HCFa | – | – | – | – | – | 0.582 | 0.576 | 0.565 | 0.526
1 µM, coculture fibroblast: HCPF | – | – | – | – | – | 0.586 | 0.574 | 0.556 | 0.548
1 µM, coculture fibroblast: HHSteC | – | – | – | – | 0.629 | 0.63 | 0.617 | 0.623 | 0.592
1 µM, coculture fibroblast: HMF | – | – | – | – | 0.654 | 0.649 | 0.651 | 0.645 | 0.64
1 µM, coculture fibroblast: HPFa | – | – | – | – | 0.583 | 0.572 | 0.552 | 0.553 | 0.52
1 µM, coculture fibroblast: HUF | – | – | – | – | 0.457 | 0.453 | 0.43 | 0.438 | 0.425
1 µM, coculture fibroblast: Hs5 | – | – | – | – | 0.647 | 0.606 | 0.584 | 0.578 | 0.549
1 µM, coculture fibroblast: Hs27A | – | – | – | – | 0.604 | 0.586 | 0.598 | 0.603 | 0.564
1 µM, coculture fibroblast: Hs343T | – | – | – | – | 0.553 | 0.52 | 0.487 | 0.47 | 0.449
1 µM, coculture fibroblast: WS1 | – | – | – | – | 0.409 | 0.393 | 0.386 | 0.4 | 0.386
10 µM, coculture fibroblast: C12385 | 0.0974 | 0.0608 | 0.0746 | 0.0578 | 0.0415 | 0.0642 | 0.0571 | 0.0495 | 0.0472
10 µM, coculture fibroblast: H6013 | 0.437 | 0.416 | 0.428 | 0.53 | 0.538 | 0.575 | 0.53 | 0.488 | 0.397
10 µM, coculture fibroblast: H6019 | 0.145 | 0.141 | 0.1817 | 0.112 | 0.0809 | 0.0666 | 0.0471 | 0.043 | 0.0163
10 µM, coculture fibroblast: H6076 | 0.572 | 0.5273 | 0.541 | 0.586 | 0.601 | 0.557 | 0.501 | 0.435 | 0.372
10 µM, coculture fibroblast: H6231 | 0.51 | 0.393 | 0.354 | 0.394 | 0.384 | 0.439 | 0.432 | 0.433 | 0.377
10 µM, coculture fibroblast: HADF | 0.33 | 0.2823 | 0.271 | 0.34 | 0.391 | 0.47 | 0.463 | 0.455 | 0.376
10 µM, coculture fibroblast: HCFa | 0.371 | 0.3417 | 0.3353 | 0.358 | 0.4039 | 0.461 | 0.51 | 0.517 | 0.454
10 µM, coculture fibroblast: HCPF | 0.587 | 0.481 | 0.417 | 0.417 | 0.42 | 0.417 | 0.417 | 0.396 | 0.357
10 µM, coculture fibroblast: HHSteC | 0.414 | 0.404 | 0.401 | 0.479 | 0.542 | 0.554 | 0.545 | 0.509 | 0.409
10 µM, coculture fibroblast: HMF | 0.535 | 0.423 | 0.425 | 0.46 | 0.452 | 0.41 | 0.4 | 0.373 | 0.332
10 µM, coculture fibroblast: HPFa | 0.378 | 0.38 | 0.358 | 0.413 | 0.4744 | 0.529 | 0.511 | 0.514 | 0.435
10 µM, coculture fibroblast: HUF | 0.158 | 0.117 | 0.182 | 0.101 | 0.104 | 0.114 | 0.0753 | 0.0659 | 0.0401
10 µM, coculture fibroblast: Hs5 | 0.562 | 0.508 | 0.511 | 0.544 | 0.564 | 0.513 | 0.465 | 0.374 | 0.281
10 µM, coculture fibroblast: Hs27A | 0.458 | 0.433 | 0.456 | 0.534 | 0.678 | 0.746 | 0.748 | 0.678 | 0.571
10 µM, coculture fibroblast: Hs343T | 0.547 | 0.464 | 0.4493 | 0.492 | 0.484 | 0.463 | 0.43 | 0.395 | 0.359
10 µM, coculture fibroblast: WS1 | 0.141 | 0.09 | 0.111 | 0.0678 | 0.0704 | 0.0627 | 0.0469 | 0.0588 | 0.0341
